Assay results reported in the supplement of paper PMC12872613.
Where a name gives a salt, the structure may show the parent alone. The list shows a part of the results. No stated cut-off is given here; in the data, active = 0.7 or more and inactive = the rest. Repeats are few or missing, and single values can be far off.

test system: MiaPaCa-2 CLSA-25; test: cell death relative to DMSO vehicle (fraction); higher = more cytotoxic; settings: 5 µM; treatment time 48 h; medium cystine 25 µM

Structure (SMILES) | cell death
COc1ccccc1OCCNCC(O)COc1cccc2[nH]c3ccccc3c12 (centres undefined) [Carvedilol phosphate] | inactive: 0.0276
COc1ccc(N2C(=O)/C(=C\c3ccc([N+](=O)[O-])s3)SC2=S)cc1 | active: 0.81
Cc1noc(-c2ccc(-c3ccc(C4(C(=O)O)CC4)cc3)cc2)c1NC(=O)O[C@H](C)c1ccccc1 | inactive: 0.628
Cc1[nH]c(=O)c(C#N)cc1-c1ccc2nccn2c1 [Olprinone] | inactive: 0.533
CCC1=C(C)CN(C(=O)NCCc2ccc(S(=O)(=O)NC(=O)N[C@H]3CC[C@H](C)CC3)cc2)C1=O [Glimepiride] | inactive: -0.0158
COc1ccc(CC2NCCc3cc(OC)c(OC)cc32)cc1OC (centres undefined) [Tetrahydropapaverine hydrochloride] | inactive: 0.0166
OC[C@H]1OC(O)[C@@H](O)[C@@H](O)[C@@H]1O (stereo partly drawn) [D-Mannose] | inactive: 0.627
CCc1nc2c(C)cc(N3CCN(CC(=O)N4CC(O)C4)CC3)cn2c1N(C)c1nc(-c2ccc(F)cc2)c(C#N)s1 | inactive: 0.391
COC(=O)c1sccc1S(=O)(=O)Nc1ccc(Nc2ccccc2)cc1OC | inactive: 0.195
NS(=O)(=O)c1cc2c(cc1Cl)N=CNS2(=O)=O [Chlorothiazide] | inactive: 0.336
CC(c1cc2ccccc2s1)N(O)C(N)=O (centres undefined) [Zileuton] | inactive: 0.0936
CN(C)C(=O)Nc1cccc(-c2ccc(N(C)C)cc2)c1 [Atglistatin] | inactive: 0.138
CN(C)C[C@@H]1CCn2cc(c3ccccc32)C2=C(C(=O)NC2=O)c2cn(c3ccccc23)CCO1 [Ruboxistaurin hydrochloride] | inactive: 0.171
CCOc1ccccc1-n1c(C(C)N2CCN(C(=O)COc3ccc(Cl)cc3)CC2)nc2ccccc2c1=O (centres undefined) [Erastin] | inactive: 0.552
CCOC(=O)[C@H](CCc1ccccc1)N[C@@H](C)C(=O)N1Cc2ccccc2C[C@H]1C(=O)O [Quinapril hydrochloride] | inactive: 0.155
CCCCCCCCCCCCCCCCOc1nc2ccc(C)cc2c(=O)o1 [Cetilistat] | inactive: 0.191
CCc1cccc2c3c([nH]c12)C(CC)(CC(=O)O)OCC3 (centres undefined) [Etodolac] | inactive: 0.621
CC#CCn1c(N2CCC[C@@H](N)C2)nc2c1c(=O)n(Cc1nc(C)c3ccccc3n1)c(=O)n2C [Linagliptin] | inactive: 0.595
C[C@H]1[C@H](C)CC[C@]2(C(=O)O[C@@H]3O[C@H](CO[C@@H]4O[C@H](CO)[C@@H](O[C@@H]5O[C@H](C)[C@H](O)[C@@H](O)[C@H]5O)[C@H](O)[C@H]4O)[C@@H](O)[C@H](O)[C@H]3O)CC[C@]3(C)C(=CC[C@@H]4[C@@]5(C)C[C@@H](O)[C@H](O)[C@@](C)(CO)[C@@H]5CC[C@]43C)[C@H]12 [Asiaticoside] | inactive: 0.129
O=C1[C@H](CC[C@H](O)c2ccc(F)cc2)[C@@H](c2ccc(O)cc2)N1c1ccc(F)cc1 [Ezetimibe] | inactive: 0.16

Structure (SMILES) | cell death
CCOC(=O)n1ccn(C)c1=S [Carbimazole] | inactive: 0.46
CC(=O)c1ccc(S(=O)(=O)NC(=O)NC2CCCCC2)cc1 [Acetohexamide] | inactive: 0.414
O=C1O[C@H]([C@@H](O)CO)C(O)=C1O [L(+)-Ascorbic acid] | inactive: 0.16
O=C1OCCN1/N=C/c1ccc([N+](=O)[O-])o1 [Furazolidone] | inactive: 0.527
O=C(O)c1cc(C(F)(F)F)ccc1N1CC[C@H](OCc2ccccn2)C1 | inactive: 0.582
CC1(C)O[C@@H]2C[C@H]3[C@@H]4CCC5=CC(=O)C=C[C@]5(C)[C@H]4[C@@H](O)C[C@]3(C)[C@]2(C(=O)CO)O1 [Desonide] | inactive: 0.109
COc1ccc(CNc2nc(N3CCC[C@H]3CO)ncc2C(=O)NCc2ncccn2)cc1Cl [Avanafil] | inactive: 0.181
O=c1oc2ccccc2c(O)c1Cc1c(O)c2ccccc2oc1=O [Dicumarol] | inactive: 0.123
CC(C)C[C@H](NC(=O)[C@@H](O)[C@H](N)Cc1ccccc1)C(=O)O [Bestatin hydrochloride] | active: 0.802
CNC(=O)[C@H](Cc1c[nH]c2ccccc12)NC(=O)[C@@H](CC(=O)NO)CC(C)C [Ilomastat] | inactive: 0.171
CC(=O)Nc1nc(C)c(-c2ccc(Cl)c(S(=O)(=O)NCCO)c2)s1 | inactive: 0.191
COC(=O)[C@]12CCC(C)(C)C[C@H]1[C@H]1C(=O)C=C3[C@@]4(C)C=C(C#N)C(=O)C(C)(C)[C@@H]4CC[C@@]3(C)[C@]1(C)CC2 [Bardoxolone Methyl] | active: 0.933
CCCCCCCCCCCC1=C(O)C(=O)C=C(O)C1=O [Embelin] | inactive: 0.259
CC[C@H](CC[C@@H](C)[C@H]1CC[C@H]2[C@@H]3CC=C4C[C@@H](O[C@@H]5O[C@H](CO)[C@@H](O)[C@H](O)[C@H]5O)CC[C@]4(C)[C@H]3CC[C@]12C)C(C)C [Sitogluside] | inactive: 0.686
N[C@@H]1C[C@H]1c1ccccc1 [Tranylcypromine (2-PCPA) hydrochloride] | inactive: 0.4
Nc1ccc(/C=C/C(=O)NCc2cc3cc(-c4ccc(C(=O)N5CCC(F)(F)CC5)cc4)cc(-c4ccc(F)cc4)c3o2)cn1 | inactive: 0.676
CC(C)c1nc(CN(C)C(=O)N[C@H](C(=O)N[C@@H](Cc2ccccc2)C[C@H](O)[C@H](Cc2ccccc2)NC(=O)OCc2cncs2)C(C)C)cs1 [Ritonavir] | inactive: 0.253
C[C@@H](C(=O)Nc1ccc(Cl)cc1)[C@H]1CC[C@@H](c2ccnc3ccc(F)cc32)CC1 [Linrodostat] | inactive: 0.207
C/C1=C/CC[C@H](C)C(=O)C[C@@H](C(C)C)C(=O)C1 [Curdione] | inactive: 0.17

Laid out differently: entries from further up.
CC1(C)O[C@@H]2C[C@H]3[C@@H]4CCC5=CC(=O)C=C[C@]5(C)[C@H]4[C@@H](O)C[C@]3(C)[C@]2(C(=O)CO)O1 [Desonide]
  cell death: inactive: 0.109
COc1ccc(CNc2nc(N3CCC[C@H]3CO)ncc2C(=O)NCc2ncccn2)cc1Cl [Avanafil]
  cell death: inactive: 0.181
